Measured data: PubChem BioAssay AID1259254 (NCATS, 2017)
Test: 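Finding genes that stop cells copying their DNA twice in one cycle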 (primary screen). System: human HCT116 colorectal cancer cells. Reagents: single siRNA against human genes. Duration: 3 days. Read-out: 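Imaged Hoechst DNA stain sorts each cell into a cycle phase by DNA amount; per plate, G2 fraction set to 0% for non-targeting and 100% for GMNN siRNA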. Direction: G2 robust z-score and G2 cells, % of GMNN control: higher = more G2 cells, more excess DNA replication; raw share of cells in G2: higher = larger share of cells with G2 DNA content. Call rule: 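An siRNA counts as active if its G2 robust z-score lies at least 5 MADs above the screen median; here such calls match roughly 38% of GMNN control or more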.
In all, the deposit lists about 59,000 reagents; this is a part drawn at random. About 1,550 of all reagents (2.6%) were called active. 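G2 share is only a proxy for re-replication; each gene was hit by three separate siRNAs, and active genes were retested.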 Raw values are not corrected between plates. The numbers tell different reagents against one gene apart. Not stated in the record: the amount of reagent.

| gene | siRNA no. | G2 robust z-score | G2 cells, % of GMNN control | raw share of cells in G2 (%) | Outcome |
| --- | --- | --- | --- | --- | --- |
| DLX4 | 1 | 0.76 | 8.31 | 6.96 | inactive |
| DLX4 | 2 | 0.629 | 7.39 | 7.6 | inactive |
| DLX4 | 3 | 10.6 | 77.6 | 33.3 | active |
| GH1 | 1 | 8.57 | 63.3 | 26.2 | active |
| GH1 | 2 | 2.87 | 23.2 | 14.1 | inactive |
| GH1 | 3 | -0.803 | -2.68 | 4.26 | inactive |
| ZC3H12D | 1 | -0.778 | -2.51 | 3.18 | inactive |
| ZC3H12D | 2 | 1.11 | 10.8 | 7.7 | inactive |
| ZC3H12D | 3 | -0.507 | -0.599 | 3 | inactive |
| GXYLT2 | 1 | -1.03 | -4.27 | 1.98 | inactive |
| GXYLT2 | 2 | 0.666 | 7.65 | 6.45 | inactive |
| GXYLT2 | 3 | -0.659 | -1.67 | 2.28 | inactive |
| USP46 | 1 | -1.37 | -6.67 | 2.78 | inactive |
| USP46 | 2 | -0.739 | -2.23 | 3.74 | inactive |
| USP46 | 3 | -0.242 | 1.27 | 4.73 | inactive |
| SLC51B | 1 | -0.196 | 1.59 | 4.73 | inactive |
| SLC51B | 2 | 0.474 | 6.3 | 5.21 | inactive |
| SLC51B | 3 | -0.269 | 1.07 | 2.13 | inactive |
| EGLN3 | 1 | 0.656 | 7.58 | 9.19 | inactive |
| EGLN3 | 2 | 1.62 | 14.4 | 11.1 | inactive |
| EGLN3 | 3 | 0.369 | 5.57 | 6.58 | inactive |
| RFX6 | 1 | -0.0438 | 2.66 | 4.01 | inactive |
| RFX6 | 2 | 0.712 | 7.97 | 5.93 | inactive |
| RFX6 | 3 | -1.22 | -5.63 | 1.55 | inactive |

Ordered by “G2 cells, % of GMNN control” (descending): 2 of the entries above
| gene | siRNA no. | G2 robust z-score | G2 cells, % of GMNN control | raw share of cells in G2 (%) | Outcome |
| --- | --- | --- | --- | --- | --- |
| SLC51B | 2 | 0.474 | 6.3 | 5.21 | inactive |
| SLC51B | 3 | -0.269 | 1.07 | 2.13 | inactive |

More entries follow.
| gene | siRNA no. | G2 robust z-score | G2 cells, % of GMNN control | raw share of cells in G2 (%) | Outcome |
| --- | --- | --- | --- | --- | --- |
| FARS2 | 1 | -0.473 | -0.359 | 6.34 | inactive |
| FARS2 | 2 | 1.38 | 12.7 | 7.94 | inactive |
| FARS2 | 3 | 2.99 | 24 | 16.1 | inactive |
| MIEF2 | 1 | -0.257 | 1.16 | 4.56 | inactive |
| MIEF2 | 2 | 0.82 | 8.73 | 5.93 | inactive |
| MIEF2 | 3 | -0.733 | -2.19 | 1.18 | inactive |
| ALDH3B1 | 1 | 0.44 | 6.06 | 6.25 | inactive |
| ALDH3B1 | 2 | 7.33 | 54.5 | 23.3 | active |
| ALDH3B1 | 3 | 0.665 | 7.65 | 7.79 | inactive |
| C3orf62 | 1 | -1.4 | -6.91 | 1.4 | inactive |
| C3orf62 | 2 | -0.739 | -2.23 | 2.43 | inactive |
| C3orf62 | 3 | 0.491 | 6.42 | 7.39 | inactive |
| CDC42EP2 | 1 | -1.37 | -6.68 | 2.31 | inactive |
| CDC42EP2 | 2 | -0.557 | -0.951 | 3.55 | inactive |
| CDC42EP2 | 3 | 3.86 | 30.2 | 14.4 | inactive |
| TDRD5 | 1 | 0.104 | 3.7 | 7.72 | inactive |
| TDRD5 | 2 | 3.19 | 25.4 | 14 | inactive |
| TDRD5 | 3 | 0.322 | 5.23 | 6.9 | inactive |
| TDRD9 | 1 | -0.61 | -1.33 | 5.05 | inactive |
| TDRD9 | 2 | -0.887 | -3.27 | 3.56 | inactive |
| TDRD9 | 3 | -0.598 | -1.24 | 4.01 | inactive |
| CENPE | 1 | 0.683 | 7.77 | 7.83 | inactive |
| CENPE | 2 | 1.33 | 12.3 | 8.33 | inactive |
| CENPE | 3 | 4.41 | 34 | 17.1 | inactive |
